Reference: US10253014B2, “Cyclic amine derivative and pharmaceutical use thereof” (Toray Industries, Inc., priority 2015, dated 2019)
Counter-ions that a name gives are not always drawn. Some results were stated once for a whole list of compounds, not compound by compound.

Each molecule was assayed on mouse partial sciatic nerve ligation model (assay: mouse partial sciatic nerve ligation model (Seltzer model), von Frey test). Details: oral administration, 0.3 to 10 mg/kg (Examples 13 to 15 and 22 to 24) or 10 mg/kg (Examples 16 to 21); one, two and three hours after administration; compared to partial sciatic nerve ligation+distilled water group, p<0.05.
Assay type: in vivo

Structure (SMILES) | analgesic action, total score in the von Frey test
CC(C)n1ccnc1CCC(=O)N1CCC[C@@H](N(C)C)C1 [Example 18, (R)-1-(3-(dimethylamino)piperidin-1-yl)-3-(1-isopropyl-1H-imidazol-2-yl)propan-1-one hydrochloride] | statistically significant analgesic action
CN(C)[C@H]1CCCN(C(=O)CCc2nccn2C)C1 [Example 14, (S)-1-(3-(dimethylamino)piperidin-1-yl)-3-(1-methyl-1H-imidazol-2-yl)propan-1-one hydrochloride] | statistically significant analgesic action
CC(C)n1ccnc1CCC(=O)N1CCC[C@H](N(C)C)C1 [Example 17, (S)-1-(3-(dimethylamino)piperidin-1-yl)-3-(1-isopropyl-1H-imidazol-2-yl)propan-1-one hydrochloride] | statistically significant analgesic action
COCCn1ccnc1CCC(=O)N1CCC[C@@H](N(C)C)C1 [Example 21, (R)-1-(3-(dimethylamino)piperidin-1-yl)-3-(1-(2-methoxyethyl)-1H-imidazol-2-yl)propan-1-one hydrochloride] | statistically significant analgesic action
CN(C)[C@@H]1CCCN(C(=O)CCc2nccn2C)C1 [Example 15, (R)-1-(3-(dimethylamino)piperidin-1-yl)-3-(1-methyl-1H-imidazol-2-yl)propan-1-one hydrochloride] | statistically significant analgesic action
CC(C)n1ccnc1CCC(=O)N1CC(N(C)C)C1 [Example 16, 1-(3-(dimethylamino)azetidin-1-yl)-3-(1-isopropyl-1H-imidazol-2-yl)propan-1-one Hydrochloride] | statistically significant analgesic action
CN(C)C1CN(C(=O)CCc2ncc(Cl)n2C)C1 [Example 22, 3-(5-chloro-1-methyl-1H-imidazol-2-yl)-1-(3-(dimethylamino)azetidin-1-yl)propan-1-one hydrochloride] | statistically significant analgesic action
CN(C)[C@H]1CCCN(C(=O)CCc2ncc(Cl)n2C)C1 [Example 23, (S)-3-(5-chloro-1-methyl-1H-imidazol-2-yl)-1-(3-(dimethylamino)piperidin-1-yl)propan-1-one hydrochloride] | statistically significant analgesic action
CN(C)[C@@H]1CCCN(C(=O)CCc2ncc(Cl)n2C)C1 [Example 24, (R)-3-(5-chloro-1-methyl-1H-imidazol-2-yl)-1-(3-(dimethylamino)piperidin-1-yl)propan-1-one hydrochloride] | statistically significant analgesic action
CN(C)C1CN(C(=O)CCc2nccn2CC(F)(F)F)C1 [Example 19, 1-(3-(dimethylamino)azetidin-1-yl)-3-(1-(2,2,2-trifluoroethyl)-1H-imidazol-2-yl)propan-1-one hydrochloride] | statistically significant analgesic action
CN(C)[C@@H]1CCCN(C(=O)CCc2nccn2CC(F)(F)F)C1 [Example 20, (R)-1-(3-(dimethylamino)piperidin-1-yl)-3-(1-(2,2,2-trifluoroethyl)-1H-imidazol-2-yl)propan-1-one hydrochloride] | statistically significant analgesic action
CN(C)C1CN(C(=O)CCc2nccn2C)C1 [Example 13, 1-(3-(dimethylamino)azetidin-1-yl)-3-(1-methyl-1H-imidazol-2-yl)-propan-1-one hydrochloride] | statistically significant analgesic action
